Source: the supplement of paper PMC10849652
The list shows a part of the results.

Amino acid sequences for entries named in this document (tags omitted). A change or cut given only in a name is not applied to a line headed by its entry.
UniProt Q5H9R7: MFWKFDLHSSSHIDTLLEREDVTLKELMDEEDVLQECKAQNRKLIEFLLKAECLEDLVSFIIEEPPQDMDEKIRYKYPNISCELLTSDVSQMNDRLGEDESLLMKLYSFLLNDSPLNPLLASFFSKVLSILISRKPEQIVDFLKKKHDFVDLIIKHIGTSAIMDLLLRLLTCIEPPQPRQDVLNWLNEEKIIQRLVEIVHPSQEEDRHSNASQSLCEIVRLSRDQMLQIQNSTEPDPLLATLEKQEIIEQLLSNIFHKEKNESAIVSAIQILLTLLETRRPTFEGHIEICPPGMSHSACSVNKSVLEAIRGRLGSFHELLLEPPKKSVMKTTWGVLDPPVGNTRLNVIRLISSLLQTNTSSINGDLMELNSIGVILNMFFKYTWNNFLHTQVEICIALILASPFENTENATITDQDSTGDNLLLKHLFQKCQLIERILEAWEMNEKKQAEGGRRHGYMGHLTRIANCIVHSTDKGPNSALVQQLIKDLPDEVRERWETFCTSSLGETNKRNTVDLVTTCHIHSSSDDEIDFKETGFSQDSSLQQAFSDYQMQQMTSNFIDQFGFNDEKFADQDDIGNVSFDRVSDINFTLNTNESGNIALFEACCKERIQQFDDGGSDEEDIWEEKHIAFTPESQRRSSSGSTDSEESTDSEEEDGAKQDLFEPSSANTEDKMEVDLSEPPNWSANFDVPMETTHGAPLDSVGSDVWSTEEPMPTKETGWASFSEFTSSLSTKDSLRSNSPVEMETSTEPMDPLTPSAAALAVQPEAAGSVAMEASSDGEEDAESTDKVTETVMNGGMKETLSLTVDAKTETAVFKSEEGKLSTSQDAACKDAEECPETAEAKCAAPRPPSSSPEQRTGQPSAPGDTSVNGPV
UniProt O94806: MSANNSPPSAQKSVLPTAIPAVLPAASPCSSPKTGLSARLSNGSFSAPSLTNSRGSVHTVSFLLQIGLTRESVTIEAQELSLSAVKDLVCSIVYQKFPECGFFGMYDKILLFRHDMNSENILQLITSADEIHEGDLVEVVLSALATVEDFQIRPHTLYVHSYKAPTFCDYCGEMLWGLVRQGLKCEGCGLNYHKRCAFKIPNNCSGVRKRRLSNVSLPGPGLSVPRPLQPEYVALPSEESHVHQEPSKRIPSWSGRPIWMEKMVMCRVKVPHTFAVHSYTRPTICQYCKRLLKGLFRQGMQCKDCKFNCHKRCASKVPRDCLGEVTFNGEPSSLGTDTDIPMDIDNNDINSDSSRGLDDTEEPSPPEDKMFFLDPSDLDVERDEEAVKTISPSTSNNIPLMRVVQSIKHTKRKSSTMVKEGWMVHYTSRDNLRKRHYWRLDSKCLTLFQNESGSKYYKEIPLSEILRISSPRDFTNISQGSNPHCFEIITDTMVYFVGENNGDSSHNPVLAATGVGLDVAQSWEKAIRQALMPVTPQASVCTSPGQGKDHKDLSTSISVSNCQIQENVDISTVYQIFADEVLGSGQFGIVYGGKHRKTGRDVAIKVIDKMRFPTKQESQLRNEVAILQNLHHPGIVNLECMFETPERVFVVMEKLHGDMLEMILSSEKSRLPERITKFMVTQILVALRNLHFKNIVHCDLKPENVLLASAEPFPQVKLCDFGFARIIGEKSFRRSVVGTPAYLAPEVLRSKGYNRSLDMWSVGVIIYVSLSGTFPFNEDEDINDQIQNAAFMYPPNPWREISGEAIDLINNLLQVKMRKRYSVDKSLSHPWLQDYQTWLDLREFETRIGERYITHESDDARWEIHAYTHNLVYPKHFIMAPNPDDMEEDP
UniProt Q9BSG0: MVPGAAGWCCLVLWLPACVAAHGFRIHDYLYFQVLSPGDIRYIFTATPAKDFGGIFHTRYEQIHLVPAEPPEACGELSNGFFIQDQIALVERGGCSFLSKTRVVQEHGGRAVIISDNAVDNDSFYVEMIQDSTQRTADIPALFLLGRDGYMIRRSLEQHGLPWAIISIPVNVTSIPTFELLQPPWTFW
UniProt Q15172: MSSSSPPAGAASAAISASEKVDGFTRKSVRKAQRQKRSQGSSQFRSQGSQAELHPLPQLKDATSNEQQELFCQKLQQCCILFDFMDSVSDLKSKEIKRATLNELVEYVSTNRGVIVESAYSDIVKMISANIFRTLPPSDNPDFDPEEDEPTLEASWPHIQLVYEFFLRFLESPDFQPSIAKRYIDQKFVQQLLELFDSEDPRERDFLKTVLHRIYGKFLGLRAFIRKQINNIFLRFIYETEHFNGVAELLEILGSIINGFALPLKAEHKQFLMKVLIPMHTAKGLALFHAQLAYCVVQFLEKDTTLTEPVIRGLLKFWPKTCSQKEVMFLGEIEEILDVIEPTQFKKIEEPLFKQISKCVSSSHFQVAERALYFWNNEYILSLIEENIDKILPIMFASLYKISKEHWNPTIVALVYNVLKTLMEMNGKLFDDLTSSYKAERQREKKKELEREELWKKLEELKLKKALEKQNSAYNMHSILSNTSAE
UniProt Q4J6C6, whole entry, looked up: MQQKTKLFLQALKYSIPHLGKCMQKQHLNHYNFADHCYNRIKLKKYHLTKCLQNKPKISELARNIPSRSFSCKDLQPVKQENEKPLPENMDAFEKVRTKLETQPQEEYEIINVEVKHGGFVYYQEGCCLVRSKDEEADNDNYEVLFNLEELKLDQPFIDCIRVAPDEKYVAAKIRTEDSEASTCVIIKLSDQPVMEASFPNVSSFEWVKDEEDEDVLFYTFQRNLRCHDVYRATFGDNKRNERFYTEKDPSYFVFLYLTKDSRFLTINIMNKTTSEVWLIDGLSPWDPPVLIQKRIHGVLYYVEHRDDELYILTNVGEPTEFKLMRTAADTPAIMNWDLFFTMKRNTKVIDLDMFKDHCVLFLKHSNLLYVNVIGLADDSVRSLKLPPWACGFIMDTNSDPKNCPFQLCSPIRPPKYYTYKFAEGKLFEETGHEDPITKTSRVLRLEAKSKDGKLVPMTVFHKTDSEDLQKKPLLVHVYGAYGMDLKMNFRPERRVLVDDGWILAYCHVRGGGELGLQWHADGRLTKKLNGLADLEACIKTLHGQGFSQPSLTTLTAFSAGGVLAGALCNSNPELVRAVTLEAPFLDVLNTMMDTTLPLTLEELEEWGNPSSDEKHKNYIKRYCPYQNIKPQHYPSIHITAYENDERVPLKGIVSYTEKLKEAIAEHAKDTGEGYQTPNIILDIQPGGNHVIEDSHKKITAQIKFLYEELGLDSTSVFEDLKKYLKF
UniProt P50336: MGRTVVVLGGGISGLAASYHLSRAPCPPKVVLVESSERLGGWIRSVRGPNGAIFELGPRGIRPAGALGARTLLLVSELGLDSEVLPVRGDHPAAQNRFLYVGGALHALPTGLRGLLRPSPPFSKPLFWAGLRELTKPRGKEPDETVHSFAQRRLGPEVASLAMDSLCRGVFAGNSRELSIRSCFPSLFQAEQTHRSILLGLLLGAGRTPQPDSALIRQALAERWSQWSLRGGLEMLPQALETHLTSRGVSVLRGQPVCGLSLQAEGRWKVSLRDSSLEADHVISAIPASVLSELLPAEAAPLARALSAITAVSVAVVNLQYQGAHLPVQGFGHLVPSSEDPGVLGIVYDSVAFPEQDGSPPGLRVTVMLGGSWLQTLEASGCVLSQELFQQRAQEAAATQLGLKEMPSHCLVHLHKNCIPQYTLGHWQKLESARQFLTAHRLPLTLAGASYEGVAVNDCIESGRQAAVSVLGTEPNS
UniProt O43395: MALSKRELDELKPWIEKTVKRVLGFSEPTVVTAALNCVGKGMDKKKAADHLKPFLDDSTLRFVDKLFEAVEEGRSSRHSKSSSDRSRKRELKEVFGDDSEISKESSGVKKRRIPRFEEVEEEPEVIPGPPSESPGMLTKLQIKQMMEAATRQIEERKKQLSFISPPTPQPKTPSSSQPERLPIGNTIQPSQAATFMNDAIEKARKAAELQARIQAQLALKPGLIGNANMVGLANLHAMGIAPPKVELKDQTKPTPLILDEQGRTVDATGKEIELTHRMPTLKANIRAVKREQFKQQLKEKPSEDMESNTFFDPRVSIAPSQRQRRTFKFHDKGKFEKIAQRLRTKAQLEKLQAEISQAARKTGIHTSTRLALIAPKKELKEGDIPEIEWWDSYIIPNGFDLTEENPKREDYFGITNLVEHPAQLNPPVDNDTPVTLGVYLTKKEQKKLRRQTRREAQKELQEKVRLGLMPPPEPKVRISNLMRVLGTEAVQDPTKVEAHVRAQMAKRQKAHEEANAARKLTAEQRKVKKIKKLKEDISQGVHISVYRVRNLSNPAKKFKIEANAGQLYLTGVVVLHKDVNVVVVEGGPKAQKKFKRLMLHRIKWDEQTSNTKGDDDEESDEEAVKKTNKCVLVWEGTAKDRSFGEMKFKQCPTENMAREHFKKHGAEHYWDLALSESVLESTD
UniProt P30048: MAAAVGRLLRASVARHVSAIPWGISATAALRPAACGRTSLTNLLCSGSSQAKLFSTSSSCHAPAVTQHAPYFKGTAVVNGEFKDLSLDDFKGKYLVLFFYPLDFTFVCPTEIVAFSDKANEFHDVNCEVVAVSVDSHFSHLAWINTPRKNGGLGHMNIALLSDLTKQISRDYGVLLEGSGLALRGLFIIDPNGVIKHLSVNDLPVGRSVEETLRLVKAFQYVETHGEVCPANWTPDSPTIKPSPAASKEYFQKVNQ
UniProt P48147: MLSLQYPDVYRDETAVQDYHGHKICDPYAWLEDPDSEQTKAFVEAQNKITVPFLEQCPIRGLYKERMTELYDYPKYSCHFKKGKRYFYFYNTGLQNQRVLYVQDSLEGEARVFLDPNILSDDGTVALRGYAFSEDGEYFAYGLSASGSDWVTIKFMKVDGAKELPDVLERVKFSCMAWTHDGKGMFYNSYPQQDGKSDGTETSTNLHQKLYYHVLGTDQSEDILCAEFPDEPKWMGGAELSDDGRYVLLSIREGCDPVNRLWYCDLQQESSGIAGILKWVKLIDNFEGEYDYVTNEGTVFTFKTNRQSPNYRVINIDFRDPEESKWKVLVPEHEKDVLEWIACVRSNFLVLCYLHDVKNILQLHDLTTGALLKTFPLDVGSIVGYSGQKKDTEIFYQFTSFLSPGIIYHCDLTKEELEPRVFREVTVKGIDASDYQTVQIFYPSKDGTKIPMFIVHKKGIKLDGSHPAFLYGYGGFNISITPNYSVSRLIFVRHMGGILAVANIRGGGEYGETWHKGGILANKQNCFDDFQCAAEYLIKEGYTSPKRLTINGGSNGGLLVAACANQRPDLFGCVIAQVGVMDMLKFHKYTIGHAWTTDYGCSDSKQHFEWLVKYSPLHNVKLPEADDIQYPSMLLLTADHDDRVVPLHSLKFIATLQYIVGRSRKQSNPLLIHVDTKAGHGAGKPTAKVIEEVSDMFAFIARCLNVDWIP
UniProt Q9Y478: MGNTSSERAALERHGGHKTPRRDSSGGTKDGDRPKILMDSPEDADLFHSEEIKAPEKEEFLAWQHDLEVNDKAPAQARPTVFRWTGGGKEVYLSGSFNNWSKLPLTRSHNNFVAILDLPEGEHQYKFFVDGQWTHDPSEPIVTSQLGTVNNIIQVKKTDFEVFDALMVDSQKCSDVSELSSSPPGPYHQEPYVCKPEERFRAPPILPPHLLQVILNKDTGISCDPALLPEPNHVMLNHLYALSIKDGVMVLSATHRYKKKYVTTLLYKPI
UniProt O15091: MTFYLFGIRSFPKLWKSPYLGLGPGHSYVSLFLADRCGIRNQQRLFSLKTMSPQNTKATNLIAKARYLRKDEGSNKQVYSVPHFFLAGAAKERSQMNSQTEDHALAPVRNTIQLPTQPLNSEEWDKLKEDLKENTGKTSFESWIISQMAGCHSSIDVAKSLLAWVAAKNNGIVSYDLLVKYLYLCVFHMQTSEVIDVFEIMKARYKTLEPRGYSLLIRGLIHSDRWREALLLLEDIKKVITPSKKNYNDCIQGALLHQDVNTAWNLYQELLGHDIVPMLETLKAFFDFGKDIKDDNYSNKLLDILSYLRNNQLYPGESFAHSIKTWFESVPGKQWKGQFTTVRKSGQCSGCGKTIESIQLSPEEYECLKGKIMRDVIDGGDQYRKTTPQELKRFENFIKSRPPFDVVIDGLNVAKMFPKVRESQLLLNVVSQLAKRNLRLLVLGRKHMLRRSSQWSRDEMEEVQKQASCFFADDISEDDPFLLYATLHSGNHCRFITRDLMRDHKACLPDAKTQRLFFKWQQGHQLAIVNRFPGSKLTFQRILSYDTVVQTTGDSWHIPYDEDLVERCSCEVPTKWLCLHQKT

What was measured:
Assay in all cases: log2 fold change, soluble protein after heating vs DMSO (PISA); higher = thermal stabilisation; K562 lysate, 10 uM; active = over 0.2 and 3.5 SD of the protein, either way, in both replicates (recomputed)
[1] = compound: CN1CC[C@H](c2c(O)cc(O)c3c(=O)cc(-c4ccccc4Cl)oc23)[C@H](O)C1 [alvocidib]
Method in brief: (§1)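 Following dounce homogenisation of K562 pellets in PBS pH 7.4 with 1 mM MgCl2, crude extract at 1 mg/mL protein was incubated for 30 min with 10 μM compound. Aliquots were then heated for 3 min over 48°C-58°C and pooled, NP-40 was added to 0.5% at 4°C, and soluble protein was recovered as the supernatant at 21,000xg for 90 min. Channel-sum-equalised TMTpro 16plex LC-MS/MS quantified this protein. Each value, from duplicates, is a log-two fold change in thermal stability relative to solvent controls.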

[2] = compound: CN1CCc2c(c3ccccc3n2Cc2ccc(C(=O)NO)cc2)C1 [Tubastatin A]
Method in brief: as §1

[3] = compound: CNC(=O)C1=CC=CC=C1NC2=NC(=NC=C2Cl)NC3=C(C=C(C=C3)N4CCOCC4)OC
Method in brief: as §1

[4] = compound: COc1cc(Nc2ncc3c(n2)-c2ccc(Cl)cc2C(c2c(F)cccc2OC)=NC3)ccc1C(=O)O [alisertib]
Method in brief: as §1

[5] = compound: COc1cc2ncnc(Nc3ccc(F)c(Cl)c3)c2cc1OCCCN1CCOCC1 [gefitinib]
Method in brief: as §1

[6] = compound: C[C@H](C1=CC=C(C=C1)C(=O)NC2=C3C=CNC3=NC=C2)N
Method in brief: as §1

[7] = compound: Cc1cc(Nc2cc(CN3CCOCC3)c3nc(C)c(Cc4ccc(Cl)cc4F)n3n2)n[nH]1 [gandotinib]
Method in brief: as §1

[8] = compound: Cc1cccc(CC(=O)N2CCc3c2ccc(-c2cn(C)c4ncnc(N)c24)c3F)n1
Method in brief: as §1

[9] = compound: CNC(=O)c1ccc(Nc2ncc(C(F)(F)F)c(NCc3nccnc3N(C)S(C)(=O)=O)n2)cc1 [defactinib]
Method in brief: as §1

[10] = compound: COC(=O)N[C@@H](C)CNc1nccc(-c2cn(C(C)C)nc2-c2cc(Cl)cc(NS(C)(=O)=O)c2F)n1 [encorafenib]
Method in brief: as §1

[11] = compound: COC(=O)[C@H](CCSC)NC(=O)C1=C(C=C(C=C1)NC[C@H](CS)N)C2=CC=CC=C2
Method in brief: as §1

[12] = compound: COc1cc2nc(-c3cc(F)ccc3O)nc(N[C@@H]3CNC[C@H]3C(C)(C)O)c2cc1OC
Method in brief: as §1

[13] = compound: CS(=O)(=O)CCNCc1ccc(-c2ccc3ncnc(Nc4ccc(OCc5cccc(F)c5)c(Cl)c4)c3c2)o1 [lapatinib]
Method in brief: as §1

[14] = compound: CS(=O)(=O)N1CCN(Cc2cc3nc(-c4cccc5[nH]ncc45)nc(N4CCOCC4)c3s2)CC1 [pictilisib]
Method in brief: as §1

[15] = compound: C[C@@H](Oc1cc(-c2cnn(C3CCNCC3)c2)cnc1N)c1c(Cl)ccc(F)c1Cl [crizotinib]
Method in brief: as §1

[16] = compound: Cc1cc(Nc2cc(N3CCN(C)CC3)nc(Sc3ccc(NC(=O)C4CC4)cc3)n2)n[nH]1 [tozasertib]
Method in brief: as §1

[17] = compound: Cc1ccc(-n2nc(C(C)(C)C)cc2NC(=O)Nc2ccc(OCCN3CCOCC3)c3ccccc23)cc1 [doramapimod]
Method in brief: as §1

[18] = compound: Cc1ccc(NC(=O)c2ccc(CN3CC[C@H](N(C)C)C3)c(C(F)(F)F)c2)cc1Nc1nccc(-c2cncnc2)n1 [bafetinib]
Method in brief: as §1

[19] = compound: CNc1nc(-c2ccc3c(N)n[nH]c3c2)cc(N2C[C@@H](C(=O)NC3CCCCC3)CC[C@H]2C)n1
Method in brief: as §1

[20] = compound: C[C@H](Nc1ncnc2nc[nH]c12)c1cc2cccc(Cl)c2c(=O)n1-c1ccccc1 [duvelisib]
Method in brief: as §1

PPP6R3 isoform 2 (UniProt Q5H9R7)
log2 fold change [1]: inactive: -0.108 | log2 fold change [2]: inactive: 0.102 | log2 fold change [3]: inactive: -0.03 | log2 fold change [4]: inactive: 0.108 | log2 fold change [5]: inactive: 0.126 | log2 fold change [6]: inactive: -0.041 | log2 fold change [7]: inactive: 0.022 | log2 fold change [8]: inactive: -0.02

PRKD3 (UniProt O94806)
log2 fold change [1]: inactive: -0.308 | log2 fold change [2]: inactive: -0.014 | log2 fold change [3]: inactive: -0.066 | log2 fold change [9]: inactive: 0.059 | log2 fold change [10]: inactive: 0.077 | log2 fold change [11]: inactive: 0.233 | log2 fold change [4]: inactive: 0.139 | log2 fold change [12]: inactive: 0.087 | log2 fold change [5]: inactive: -0.051 | log2 fold change [13]: inactive: 0.031 | log2 fold change [14]: inactive: 0.019 | log2 fold change [15]: inactive: -0.199 | log2 fold change [6]: active: -0.643 | log2 fold change [7]: inactive: 0.423 | log2 fold change [16]: inactive: 0.092 | log2 fold change [17]: inactive: -0.075 | log2 fold change [18]: inactive: -0.086 | log2 fold change [8]: inactive: 0.46

PRADC1 (UniProt Q9BSG0)
log2 fold change [1]: inactive: -0.141 | log2 fold change [2]: inactive: 0.04 | log2 fold change [3]: inactive: -0.126 | log2 fold change [19]: inactive: 0.059 | log2 fold change [4]: inactive: 0.109 | log2 fold change [12]: inactive: 0.212 | log2 fold change [5]: inactive: -0.071 | log2 fold change [13]: inactive: -0.088 | log2 fold change [14]: inactive: 0.091 | log2 fold change [15]: inactive: 0.075 | log2 fold change [6]: inactive: 0.166 | log2 fold change [20]: inactive: -0.069 | log2 fold change [7]: inactive: -0.002 | log2 fold change [17]: inactive: -0.041 | log2 fold change [18]: inactive: -0.149 | log2 fold change [8]: inactive: -0.087

PPP2R5A (UniProt Q15172)
log2 fold change [1]: inactive: 0.063 | log2 fold change [2]: inactive: -0.053 | log2 fold change [3]: inactive: 0.004 | log2 fold change [9]: inactive: 0.041 | log2 fold change [19]: inactive: -0.034 | log2 fold change [10]: inactive: -0.01 | log2 fold change [11]: inactive: 0.132 | log2 fold change [4]: inactive: -0.006 | log2 fold change [12]: inactive: -0.008 | log2 fold change [5]: inactive: -0.068 | log2 fold change [13]: inactive: -0.027 | log2 fold change [14]: inactive: -0.022 | log2 fold change [15]: inactive: -0.072 | log2 fold change [6]: inactive: 0.07 | log2 fold change [20]: inactive: -0.018 | log2 fold change [7]: inactive: -0.211 | log2 fold change [16]: inactive: 0.003 | log2 fold change [17]: inactive: -0.012 | log2 fold change [18]: inactive: -0.043 | log2 fold change [8]: inactive: -0.051

PREPL (UniProt Q4J6C6)
log2 fold change [1]: inactive: -0.002 | log2 fold change [2]: inactive: 0.034 | log2 fold change [3]: inactive: -0.01 | log2 fold change [9]: inactive: 0.006 | log2 fold change [19]: inactive: -0.017 | log2 fold change [10]: inactive: 0.002 | log2 fold change [11]: inactive: -0.02 | log2 fold change [4]: inactive: -0.027 | log2 fold change [12]: inactive: -0.002 | log2 fold change [5]: inactive: 0.002 | log2 fold change [13]: inactive: 0.021 | log2 fold change [14]: inactive: 0.016 | log2 fold change [15]: inactive: 0.01 | log2 fold change [6]: inactive: 0.005 | log2 fold change [20]: inactive: 0.001 | log2 fold change [7]: inactive: -0.023 | log2 fold change [16]: inactive: 0.018 | log2 fold change [17]: inactive: -0.014 | log2 fold change [18]: inactive: -0.036 | log2 fold change [8]: inactive: 0.002

PPOX (UniProt P50336)
log2 fold change [1]: inactive: -0.004 | log2 fold change [2]: inactive: -0.124 | log2 fold change [3]: inactive: 0.257 | log2 fold change [9]: inactive: -0.03 | log2 fold change [19]: inactive: 0.107 | log2 fold change [10]: inactive: -0.017 | log2 fold change [11]: inactive: 0.076 | log2 fold change [4]: inactive: 0.005 | log2 fold change [12]: inactive: -0.035 | log2 fold change [5]: inactive: -0.043 | log2 fold change [13]: active: 0.379 | log2 fold change [14]: inactive: 0.111 | log2 fold change [15]: inactive: -0.068 | log2 fold change [6]: inactive: -0.075 | log2 fold change [20]: inactive: 0.04 | log2 fold change [7]: active: 0.581 | log2 fold change [16]: inactive: 0.003 | log2 fold change [17]: inactive: 0.206 | log2 fold change [18]: inactive: -0.028 | log2 fold change [8]: inactive: 0.11

PRPF3 (UniProt O43395)
log2 fold change [1]: inactive: 0.041 | log2 fold change [2]: inactive: -0.087 | log2 fold change [3]: inactive: -0.025 | log2 fold change [9]: inactive: -0.064 | log2 fold change [19]: inactive: 0.028 | log2 fold change [10]: inactive: 0.016 | log2 fold change [11]: inactive: -0.003 | log2 fold change [4]: inactive: 0.038 | log2 fold change [12]: inactive: 0.005 | log2 fold change [5]: inactive: -0.024 | log2 fold change [13]: inactive: 0.02 | log2 fold change [14]: inactive: 0.022 | log2 fold change [15]: inactive: -0.016 | log2 fold change [6]: inactive: 0.08 | log2 fold change [20]: inactive: -0.035 | log2 fold change [7]: inactive: -0.053 | log2 fold change [16]: inactive: -0.022 | log2 fold change [17]: inactive: -0.008 | log2 fold change [18]: inactive: -0.035 | log2 fold change [8]: inactive: -0.048

PRDX3 (UniProt P30048)
log2 fold change [1]: inactive: 0.007 | log2 fold change [2]: inactive: 0.035 | log2 fold change [3]: inactive: 0.007 | log2 fold change [9]: inactive: 0.008 | log2 fold change [19]: inactive: 0.02 | log2 fold change [10]: inactive: -0.035 | log2 fold change [11]: inactive: 0.007 | log2 fold change [4]: inactive: -0.026 | log2 fold change [12]: inactive: 0.013 | log2 fold change [5]: inactive: -0.06 | log2 fold change [13]: inactive: 0.041 | log2 fold change [14]: inactive: 0.026 | log2 fold change [15]: inactive: 0.027 | log2 fold change [6]: inactive: 0.055 | log2 fold change [20]: inactive: 0.009 | log2 fold change [7]: inactive: -0.03 | log2 fold change [16]: inactive: -0.015 | log2 fold change [17]: inactive: -0.032 | log2 fold change [18]: inactive: 0.014 | log2 fold change [8]: inactive: -0.006

PREP (UniProt P48147)
log2 fold change [1]: inactive: 0.018 | log2 fold change [2]: inactive: -0.021 | log2 fold change [3]: inactive: 0.018 | log2 fold change [9]: inactive: 0.005 | log2 fold change [19]: inactive: -0.019 | log2 fold change [10]: inactive: -0.024 | log2 fold change [11]: active: 0.361 | log2 fold change [4]: inactive: -0.011 | log2 fold change [12]: inactive: 0.013 | log2 fold change [5]: inactive: -0.012 | log2 fold change [13]: inactive: -0.024 | log2 fold change [14]: inactive: -0.013 | log2 fold change [15]: inactive: -0.016 | log2 fold change [6]: inactive: 0.009 | log2 fold change [20]: inactive: 0.043 | log2 fold change [7]: inactive: -0.042 | log2 fold change [16]: inactive: -0.012 | log2 fold change [17]: inactive: -0.001 | log2 fold change [18]: inactive: -0.004 | log2 fold change [8]: inactive: -0.01

PRKAB1 (UniProt Q9Y478)
log2 fold change [1]: inactive: 0.112 | log2 fold change [2]: inactive: 0 | log2 fold change [3]: inactive: 0.147 | log2 fold change [9]: inactive: 0.174 | log2 fold change [19]: inactive: 0.018 | log2 fold change [10]: inactive: -0.041 | log2 fold change [11]: inactive: -0.066 | log2 fold change [4]: inactive: 0.008 | log2 fold change [12]: inactive: 0.091 | log2 fold change [5]: inactive: -0.005 | log2 fold change [13]: inactive: -0.024 | log2 fold change [14]: inactive: 0.051 | log2 fold change [15]: inactive: -0.051 | log2 fold change [6]: inactive: -0.016 | log2 fold change [20]: inactive: 0.045 | log2 fold change [7]: inactive: 0.08 | log2 fold change [16]: inactive: 0.113 | log2 fold change [17]: inactive: -0.022 | log2 fold change [18]: inactive: -0.036 | log2 fold change [8]: inactive: -0.182

PRORP (UniProt O15091)
log2 fold change [1]: inactive: -0.05 | log2 fold change [2]: inactive: -0.159 | log2 fold change [3]: inactive: -0.042 | log2 fold change [9]: inactive: 0 | log2 fold change [19]: inactive: -0.015 | log2 fold change [10]: inactive: -0.012 | log2 fold change [11]: inactive: 0.152 | log2 fold change [4]: inactive: 0.199 | log2 fold change [12]: inactive: -0.046 | log2 fold change [5]: inactive: -0.054 | log2 fold change [13]: inactive: 0.039 | log2 fold change [14]: inactive: 0.147 | log2 fold change [15]: inactive: -0.048 | log2 fold change [6]: inactive: -0.118 | log2 fold change [20]: inactive: 0.157 | log2 fold change [7]: inactive: 0.06 | log2 fold change [16]: inactive: 0.14 | log2 fold change [17]: inactive: 0.036 | log2 fold change [18]: inactive: 0.164 | log2 fold change [8]: inactive: 0.095
